## Results of single-concentration screens

Measurements from “University of Dundee, Small-Polar-MMV Screening Library” (2021), ChEMBL document CHEMBL3988442.

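Whole-parasite assay of Trypanosoma brucei over 72 hours; the read-out is not stated. Compounds at 30 µM. The record gives no direction; compounds that gave an IC50 in retests scored well above the rest, so higher reads as stronger inhibition. Values scatter widely below zero; nearly all retest evidence comes from the higher of the two concentrations used. Of about 64,000 compounds tested this way, about 940 (1.5%) reached 50% or more in at least one test.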

Each number is a percent effect as filed. The controls that fix the scale are not given in the record; negative values are as filed. Compounds were drawn at random from those tested, without regard to their results.

* O=C(Nc1ccccc1OC1CCOC1)c1[nH]nc2c1CCCC2 (centres unmarked) : 22.17%
* CCC(Nc1nnnn1-c1ccccc1)C(=O)NCc1cccs1 (centres unmarked) : -21.1%
* Cc1nn2c(-c3cnn(C)c3)nnc2s1 : -3.973%
* O=C(C1CCN(c2snc3ccccc23)CC1)N1CCCCCC1 : 9.145%
* CN(Cc1ccc(C2CC(=O)Nc3cc4[nH]ncc4cc32)o1)S(C)(=O)=O (centres unmarked) : 11.27%
* CC(=O)NCc1nn(C)c2c1CN(Cc1ccsc1)C2.O=C(O)C(F)(F)F : -16.22%
* NC(=O)C(Cc1ccccc1)NS(=O)(=O)Cc1ccccc1Cl (centres unmarked) : -21.59%
* CC(C)(C)S(=O)(=O)CCNC(=O)c1ccc2ccccc2c1 : -8.633%
* CCc1ccc(S(=O)(=O)N2CCN(CCn3ccnc3)CC2)cc1 : -30.85%
* Cc1nc(C2CCN(C(=O)c3cccnc3)CC2)c2sccn12 : 12.37%
* COc1ccc(-n2nnnc2C(C)(C)Nc2ccc(C)cc2C)cc1 : -86.42%
* CCc1noc(C2CCCCN2C(=O)c2ccn(C3CCCC3)n2)n1 (centres unmarked) : -22.52%
* O=C(O)C(F)(F)F.O=C(O)C(F)(F)F.[H][C@@]12CN(CCOC)CCO[C@]1([H])CN(Cc1sccc1C)C2 : -60.21%
* Cc1cc(CN(C)C(=O)C(c2ccccc2F)N(C)C)ccn1 (centres unmarked) : 33.72%
* CN1C(=O)C2(CC(=O)Nc3[nH]ncc32)c2ccc(F)cc21 (centres unmarked) : -32.47%
* CC(C)CCn1cc(C(C(=O)O)N2CCC(N3CCSCC3)CC2)cn1 (centres unmarked) : -20.55%
* FC(F)(F)c1ccc(-c2noc3c2CN(CC2CCCO2)CC3)cc1 (centres unmarked) : 2.824%
* [H][C@@]12CS(=O)(=O)C[C@]1([H])N(C(=O)Cc1ccc(O)c(F)c1)CCN2CC1CC1 : -6.396%
* Cc1noc(C)c1CN1CCn2c(COC(C)C)nnc2C1 : -38.14%
* Cc1ncc2c(n1)CN(CC(=O)Nc1cc(C)on1)CC2 : -15.89%
* CCN1CCC(NN2CCN(C)CC2)CC1 : 0.297%
* NC(=O)C1CCN(c2cncc(-n3cccn3)n2)CC1 : -78.27%
* CC(=O)c1ccc(CN2CCCC23CCN(c2ccccn2)CC3)cc1 : -4.424%
* COC(=O)c1cccc(S(=O)(=O)Nc2ncc(C)s2)c1 : -37.92%
* OC(CN1CCC(CNCc2ccccn2)CC1)c1ccccc1 (centres unmarked) : 32.19%
* O=C(O)C(F)(F)F.[H][C@@]12CN(Cc3ccccc3)C[C@]1([H])C(=O)N(c1cncnc1)C2 : -27.35%
* Cc1cc(NC(=O)c2ccc(F)cc2Cl)n(C)n1 : -23.62%
* [H][C@@]12NCCCC[C@]1([H])N(C(=O)c1cccc(OC)c1)C[C@H]2c1ccccc1 : -26.79%